Experimental data reported in patent US20190330332A1, “Hypothermia Ameliorating Agent” (Kao Corporation, priority 2016, published 2019).
Results are given in words; binding and its absence hold for the method and conditions named. Some entries that bind do so weakly or less than the wild type. Ends that are not written are not given here.

Target: GIP(1-42) (active GIP)
Assay: sandwich ELISA; anti-total GIP monoclonal antibody as capture, biotinylated anti-active GIP antibody at 1 ug/mL as detector

binding: binds
B1: anti-active GIP monoclonal antibody produced by hybridoma 9B9H5-B9 line (Production Example 1) (antibody, V domains shown)
VH: QVQLQQPGAELVKPGASVKLSCKASGYTFTSFWMHWVIQRPGQGLEWIGEMNPSDGRTHFNEKFKTKATLTIDTSSNTAYMELNSLTSEDSAVYYCARRMEDWGQGTLVTVSA
VL: DIKMTQSPSSMYASLGERVTITCKASQDINSYLGWFQQKPGKSPKTLIYGANRLVDGVPSRFSGSGSGQDYSLTISSLEYDDMGIYYCLQYDEFPLTFGAGTKLELKR
notes: in the screening and cloning ELISA it was hybridoma culture supernatant; also called anti-active GIP antibody
